Counter-ions that a name gives are not always drawn. This is one part of the list. Part of the spread comes from offsets between plates or batches.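 The cells are HEK293 lines stably expressing B-domain-deleted factor VIII fused to Gaussia luciferase, either wild type or a misfolding-prone missense mutant. Each score is mean luminescence from triplicate wells minus the DMSO mean, divided by the DMSO standard deviation; a score of 2 or more counts as a hit, and low scores may reflect lower secretion or poorer cell viability.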
Assays:
HEK293 WT BDD-FVIII-Gluc = assay: secreted FVIII-Gluc luciferase Z-score vs DMSO control; higher = more FVIII-Gluc secretion; settings: 5 µM; 24 h
[1] = system: HEK293 p.N1941S BDD-FVIII-Gluc; assay: as above; settings: 5 µM; 24 h

Row | SMILES | secreted FVIII-Gluc luciferase Z-score (HEK293 WT BDD-FVIII-Gluc) | secreted FVIII-Gluc luciferase Z-score [1]
1 | COc1cc2/c(=N/c3ccc(Br)cc3F)nc[nH]c2cc1OCC1CCN(C)CC1 [Vandetanib (Zactima)] | inactive: -3.48 | inactive: -12.5
2 | CNCCCC12CCC(c3ccccc31)c1ccccc12 [Maprotiline hydrochloride] | inactive: 0.0608 | inactive: -6.33
3 | Nc1[nH]cnc2ncnc1-2 [Adenine hydrochloride] | inactive: -1.53 | inactive: -0.999
4 | C=C[C@]1(C)C[C@@H](OC(=O)CSC(C)(C)CNC(=O)[C@H](N)C(C)C)[C@]2(C)[C@H](C)CC[C@]3(CCC(=O)[C@H]32)[C@@H](C)[C@@H]1O [Valnemulin HCl] | inactive: -1.31 | inactive: -2.09
5 | C[C@@H](O[C@H]1OCCN(Cc2n[nH]c(=O)[nH]2)[C@H]1c1ccc(F)cc1)c1cc(C(F)(F)F)cc(C(F)(F)F)c1 [Aprepitant (MK-0869)] | inactive: 1.02 | inactive: -1.01
6 | CC(N)C12CC3CC(CC(C3)C1)C2 (stereo not drawn) [Rimantadine (Flumadine)] | inactive: -0.967 | inactive: -0.568
7 | C[C@H](CCC(=O)O)[C@H]1CC[C@H]2[C@@H]3[C@@H](O)C[C@@H]4C[C@H](O)CC[C@]4(C)[C@H]3CC[C@]12C [Ursodiol (Actigal Urso)] | inactive: -1.87 | inactive: 0.532
8 | CC[C@@H](CO)NCCN[C@@H](CC)CO [Ethambutol HCl] | inactive: 0.0775 | inactive: -0.332
9 | C[C@@H]1C[C@H]2[C@@H]3CCC4=CC(=O)C=C[C@]4(C)[C@@]3(Cl)[C@@H](O)C[C@]2(C)[C@@]1(OC(=O)c1ccco1)C(=O)CCl [Mometasone furoate] | inactive: 1.88 | inactive: 1.37
10 | Nc1ncnc2c1ncn2[C@@H]1O[C@H](CO)[C@@H](O)[C@H]1O [Adenosine (Adenocard)] | inactive: -2.16 | inactive: -0.417
11 | C[C@@H]1C/C=C/C=C/C=C/C=C/[C@H](O[C@@H]2O[C@H](C)[C@@H](O)[C@H](N)[C@@H]2O)C[C@@H]2O[C@](O)(C[C@@H](O)C[C@H]3O[C@@H]3/C=C/C(=O)O1)C[C@H](O)[C@H]2C(=O)O [Natamycin (Pimaricin)] | inactive: -2.51 | inactive: 0.261
12 | CCOCC(O)COc1ccc(NC(=O)CC[S+](C)C)cc1 (stereo not drawn) [Suplatast tosylate] | inactive: 1.57 | inactive: 1.69
13 | CO/N=C(\C(=O)N[C@@H]1C(=O)N2C(C(=O)OCOC(=O)C(C)(C)C)=C(/C=C\c3scnc3C)CS[C@H]12)c1csc(N)n1 [Cefditoren pivoxil] | inactive: -2.93 | inactive: 0.772
14 | CN1C(C(=O)Nc2ccccn2)=C(O)c2ccccc2S1(=O)=O [Piroxicam (Feldene)] | inactive: -0.817 | inactive: -0.379
15 | COc1cc(OC)c(C(=O)CCCN2CCCC2)c(OC)c1 [Buflomedil HCl] | inactive: -1.73 | inactive: -0.214
16 | C[C@]12CC[C@@H]3c4ccc(O)cc4CC[C@H]3[C@@H]1CC[C@@H]2OC(=O)CCC1CCCC1 [Estradiol Cypionate] | inactive: 0.19 | inactive: 1.3
17 | Oc1c(Cl)cc(Cl)c2cccnc12 [Chloroxine] | inactive: 1.79 | inactive: 1.45
18 | Cc1cc(NS(=O)(=O)c2ccc(N)cc2)no1 [Sulfamethoxazole] | inactive: -0.617 | inactive: 0.605
19 | CC(CN(C)C)CN1c2ccccc2CCc2ccccc21 (stereo not drawn) [Trimipramine Maleate] | active: 4.81 | active: 2.13
20 | CC(C(=O)O)c1ccc(-c2ccccc2)c(F)c1 (stereo not drawn) [Flurbiprofen (Ansaid)] | inactive: -1.4 | inactive: 0.0738
21 | Nc1ccc(S(N)(=O)=O)cc1 [Sulfanilamide] | active: 2.42 | inactive: -0.857
22 | COCCOC(=O)C1=C(C)NC(C)=C(C(=O)OC(C)C)C1c1cccc([N+](=O)[O-])c1 (stereo not drawn) [Nimodipine (Nimotop)] | inactive: -1.01 | inactive: -0.679
23 | OCCOc1ccc(/C(=C(/CCCl)c2ccccc2)c2ccccc2)cc1 [Ospemifene] | inactive: -1.94 | inactive: -0.467
24 | NC(=O)C(c1ccccc1)(c1ccccc1)[C@@H]1CCN(CCc2ccc3c(c2)CCO3)C1 [Darifenacin HBr] | inactive: -0.846 | inactive: -1.64
25 | Cc1ccc(C)c(OCCCC(C)(C)C(=O)O)c1 [Gemfibrozil (Lopid)] | inactive: -1.53 | inactive: -0.954

Row | SMILES | secreted FVIII-Gluc luciferase Z-score (HEK293 WT BDD-FVIII-Gluc) | secreted FVIII-Gluc luciferase Z-score [1]
26 | COC(=O)C1=CO[C@@H](O[C@@H]2O[C@H](CO)[C@@H](O)[C@H](O)[C@H]2O)[C@@H]2C(CO)=CC[C@H]12 [Geniposide] | inactive: -0.901 | inactive: -2.39
27 | C[C@@H](CN1CC(=O)NC(=O)C1)N1CC(=O)NC(=O)C1 [Dexrazoxane Hydrochloride] | inactive: 0.157 | inactive: -1.51
28 | COc1ccc(CC(C)NCC(O)c2ccc(O)c(NC=O)c2)cc1 (stereo not drawn) [Formoterol hemifumarate] | inactive: -1.3 | active: 2.04
29 | CN1[C@@H]2CC[C@H]1C[C@@H](OC(c1ccccc1)c1ccccc1)C2 [Benztropine mesylate] | inactive: -0.837 | inactive: -3.65
30 | CCCCCOC(=O)Nc1nc(=O)n([C@@H]2O[C@H](C)[C@@H](O)[C@H]2O)cc1F [Capecitabine (Xeloda)] | inactive: 0.488 | active: 3.81
31 | C[C@]12CC[C@@H]3c4ccc(O)cc4CC[C@H]3[C@@H]1CC[C@@H]2O [Estradiol] | inactive: -2.57 | inactive: 0.881
32 | Clc1ccc(C(Cn2ccnc2)OCc2ccc(Sc3ccccc3)cc2)c(Cl)c1 (stereo not drawn) [Fenticonazole nitrate] | inactive: -1.97 | inactive: -1.33
33 | CC(=O)CCCCn1c(=O)c2c(ncn2C)n(C)c1=O [Pentoxifylline] | inactive: -0.751 | inactive: 0.945
34 | CCOC(=O)[C@H](CCc1ccccc1)N[C@@H](C)C(=O)N1Cc2ccccc2C[C@H]1C(=O)O [Quinapril HCl (Accupril)] | inactive: -0.103 | inactive: 0.175
35 | CC[C@H]1OC(=O)[C@H](C)[C@@H](O[C@H]2C[C@@](C)(OC)[C@@H](O)[C@H](C)O2)[C@H](C)[C@@H](O[C@@H]2O[C@H](C)C[C@H](N(C)C)[C@H]2O)[C@](C)(O)C[C@@H](C)CN(C)[C@H](C)[C@@H](O)[C@]1(C)O [Azithromycin (Zithromax)] | inactive: -4.25 | inactive: -2.25
36 | C[C@@H](Oc1cc(-c2cnn(C3CCNCC3)c2)cnc1N)c1c(Cl)ccc(F)c1Cl | inactive: -4.65 | inactive: -13.9
37 | COC1C(O)CC(=O)OC(C)CC=CC=CC(OC2CCC(N(C)C)C(C)O2)C(C)CC(CC=O)C1OC1OC(C)C(OC2CC(C)(O)C(O)C(C)O2)C(N(C)C)C1O (stereo not drawn) [Spiramycin] | inactive: -1.94 | inactive: -0.874
38 | CCC1=C(C)CN(C(=O)NCCc2ccc(S(=O)(=O)NC(=O)N[C@H]3CC[C@H](C)CC3)cc2)C1=O [Glimepiride] | inactive: -4.97 | inactive: 0.514
39 | Nc1nc(F)nc2c1ncn2[C@@H]1O[C@H](CO)[C@@H](O)[C@@H]1O [Fludarabine (Fludara)] | inactive: -2.48 | inactive: 0.414
40 | COc1cc2c(cc1OC)CC(=O)N(CCCN(C)C[C@H]1Cc3cc(OC)c(OC)cc31)CC2 [Ivabradine HCl (Procoralan)] | inactive: 0.317 | inactive: 0.0642
41 | CCCCCCCCCCCCCCCC[N+](C)(C)C [Cetrimonium Bromide] | inactive: -2.46 | inactive: -2.2
42 | CC(=O)SCC(Cc1ccccc1)C(=O)NCC(=O)OCc1ccccc1 (stereo not drawn) [Racecadotril (Acetorphan)] | inactive: 1.3 | inactive: -5.42
43 | CCN1CC(CCN2CCOCC2)C(c2ccccc2)(c2ccccc2)C1=O (stereo not drawn) [Doxapram HCl] | inactive: -0.0428 | inactive: 1.08
44 | C[C@@H]1[C@H](O)[C@@H](C)/C=C/C=C/C=C/C=C/C=C/C=C/C=C/[C@H](O[C@@H]2O[C@H](C)[C@@H](O)[C@H](N)[C@@H]2O)C[C@@H]2O[C@](O)(C[C@@H](O)C[C@@H](O)[C@H](O)CC[C@@H](O)C[C@@H](O)CC(=O)O[C@H]1C)C[C@H](O)[C@H]2C(=O)O [Amphotericin B] | inactive: 0.748 | inactive: -3.35
45 | CN(C)CCCN1c2ccccc2CCc2ccc(Cl)cc21 [Clomipramine HCl] | inactive: -0.569 | inactive: -3.24
46 | COc1cc(C(=O)NC2CCCNC2)cc(OC)c1OC (stereo not drawn) [Troxipide] | inactive: -1.14 | inactive: 0.628
47 | COc1cccc2c1C(=O)c1c(O)c3c(c(O)c1C2=O)C[C@@](O)(C(C)=O)C[C@@H]3O[C@H]1C[C@H](N)[C@H](O)[C@H](C)O1 [Daunorubicin HCl (Daunomycin HCl)] | inactive: -10.8 | inactive: -2.44
48 | CC[C@@H]1/C=C(\C)C[C@H](C)C[C@H](OC)[C@H]2O[C@@](O)(C(=O)C(=O)N3CCCC[C@H]3C(=O)O[C@H](/C(C)=C/[C@@H]3CC[C@H](Cl)[C@H](OC)C3)[C@H](C)[C@@H](O)CC1=O)[C@H](C)C[C@@H]2OC [Pimecrolimus] | inactive: -2.31 | inactive: -1.48
49 | COc1ccc(CN(CCN(C)C)c2ccccn2)cc1 [Pyrilamine Maleate] | inactive: -0.637 | inactive: 1.53

Quoted from the listing.
Value for COc1ccc(CN(CCN(C)C)c2ccccn2)cc1 [Pyrilamine Maleate] under secreted FVIII-Gluc luciferase Z-score (HEK293 WT BDD-FVIII-Gluc): inactive: -0.637
Value for CCC1=C(C)CN(C(=O)NCCc2ccc(S(=O)(=O)NC(=O)N[C@H]3CC[C@H](C)CC3)cc2)C1=O [Glimepiride] under secreted FVIII-Gluc luciferase Z-score [1]: inactive: 0.514

Reference: the supplement of paper PMC12024529
